Laboratory results from US7220721B1 (Amylin Pharmaceuticals, Inc., priority 1997, dated 2007).

Experiment: Fmoc solid-phase peptide synthesis; 4-(2′-4′-dimethoxyphenyl)-Fmoc aminomethyl phenoxy acetamide norleucine MBHA resin; HBTU (Fast Moc)
Conditions: whole synthesis

Ala Gly Glu Gly Thr Phe Thr Ser Asp Leu Ser Lys Gln Leu Glu Glu Glu Ala Val Arg Leu Phe Ile Glu Phe Leu Lys Asn-NH2
crude purity (method not given): about 75%
